Results from paper PMC5690286.
Results are given in words; binding and its absence hold for the method and conditions named. Binding seen in cells or lysates may run through a third protein. Binding can be weak; no strength is given. Where a sequence is shown, tags or fusion partners need not be part of it. Values belong to the molecule of their own block, whether it stands above or below them.

Legend:
[1] = target: T1, Myc-tagged Patj (HEK293T) (Drosophila) (UniProt Q9NB04); assay: co-IP; HEK293T cells transfected with Flag-Atg9 and Myc-Patj; immunoprecipitation with anti-Flag or anti-Myc; lysis buffer 50 mM Tris-HCl pH 7.4, 150 mM NaCl, 1% Triton, 10% glycerol, 1 mM EDTA; 4°C overnight
T1 sequence: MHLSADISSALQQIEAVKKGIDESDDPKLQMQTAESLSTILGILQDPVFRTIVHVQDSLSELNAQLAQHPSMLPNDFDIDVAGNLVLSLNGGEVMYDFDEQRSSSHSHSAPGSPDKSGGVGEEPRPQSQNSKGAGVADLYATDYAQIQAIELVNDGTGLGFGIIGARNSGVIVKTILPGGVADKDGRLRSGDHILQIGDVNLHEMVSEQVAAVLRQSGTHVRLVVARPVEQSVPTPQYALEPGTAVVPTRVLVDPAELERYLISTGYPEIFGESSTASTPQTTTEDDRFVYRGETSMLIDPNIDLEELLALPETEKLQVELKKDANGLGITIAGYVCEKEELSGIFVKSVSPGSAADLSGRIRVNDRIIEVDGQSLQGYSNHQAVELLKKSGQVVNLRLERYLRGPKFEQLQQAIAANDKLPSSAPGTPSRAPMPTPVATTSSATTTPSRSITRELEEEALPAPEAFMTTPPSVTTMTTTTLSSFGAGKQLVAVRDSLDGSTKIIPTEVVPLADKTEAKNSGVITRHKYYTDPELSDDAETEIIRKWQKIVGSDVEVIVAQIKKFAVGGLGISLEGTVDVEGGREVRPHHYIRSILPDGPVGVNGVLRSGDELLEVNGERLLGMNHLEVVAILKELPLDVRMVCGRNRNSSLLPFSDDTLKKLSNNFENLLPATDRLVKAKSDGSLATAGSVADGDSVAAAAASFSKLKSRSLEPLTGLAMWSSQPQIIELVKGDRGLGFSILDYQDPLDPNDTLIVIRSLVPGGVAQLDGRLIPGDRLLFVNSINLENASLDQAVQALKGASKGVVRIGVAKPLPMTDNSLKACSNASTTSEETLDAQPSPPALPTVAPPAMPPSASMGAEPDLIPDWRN

[2] = target: GST-fused C-terminus (residues 668-845) of Atg9 (Drosophila); assay: pull-down; lysates of cells expressing Myc-Patj incubated with GST or GST-Atg9-C (amino acids 668-845); Western blot with anti-Myc; only the target purified
[3] = target: Flag-TSC2 (Drosophila); assay: co-IP; S2 cells transfected with pWA-Gal4 and two pUAS plasmids (Flag-TSC2 with Myc-Patj or with GFP-Atg9); immunoprecipitation with anti-Flag, anti-Myc or anti-GFP; lysis buffer 50 mM Tris-HCl pH 7.4, 150 mM NaCl, 1% Triton
[4] = target: Flag-TSC2 (Drosophila); assay: co-IP; S2 cells treated with dsRNAs targeting luciferase or Atg1, transfected with pWA-Gal4, pUAS-GFP-Atg9, pUAS-Myc-Patj and pUAS-Flag-TSC2 together; immunoprecipitation with anti-Flag
[5] = target: Flag-tagged Atg9 (Drosophila); assay: co-IP; HEK293T cells transfected with Flag-Atg9 and Myc-Patj; immunoprecipitation with anti-Flag or anti-Myc; lysis buffer 50 mM Tris-HCl pH 7.4, 150 mM NaCl, 1% Triton, 10% glycerol, 1 mM EDTA; 4°C overnight

binding [1]: binds
Molecule: Flag-tagged Atg9 (Drosophila)

binding [2]: binds
B1: Myc-tagged Patj in the lysate used for the GST pull-down (protein, UniProt Q9NB04 1-871)
chain: MHLSADISSALQQIEAVKKGIDESDDPKLQMQTAESLSTILGILQDPVFRTIVHVQDSLSELNAQLAQHPSMLPNDFDIDVAGNLVLSLNGGEVMYDFDEQRSSSHSHSAPGSPDKSGGVGEEPRPQSQNSKGAGVADLYATDYAQIQAIELVNDGTGLGFGIIGARNSGVIVKTILPGGVADKDGRLRSGDHILQIGDVNLHEMVSEQVAAVLRQSGTHVRLVVARPVEQSVPTPQYALEPGTAVVPTRVLVDPAELERYLISTGYPEIFGESSTASTPQTTTEDDRFVYRGETSMLIDPNIDLEELLALPETEKLQVELKKDANGLGITIAGYVCEKEELSGIFVKSVSPGSAADLSGRIRVNDRIIEVDGQSLQGYSNHQAVELLKKSGQVVNLRLERYLRGPKFEQLQQAIAANDKLPSSAPGTPSRAPMPTPVATTSSATTTPSRSITRELEEEALPAPEAFMTTPPSVTTMTTTTLSSFGAGKQLVAVRDSLDGSTKIIPTEVVPLADKTEAKNSGVITRHKYYTDPELSDDAETEIIRKWQKIVGSDVEVIVAQIKKFAVGGLGISLEGTVDVEGGREVRPHHYIRSILPDGPVGVNGVLRSGDELLEVNGERLLGMNHLEVVAILKELPLDVRMVCGRNRNSSLLPFSDDTLKKLSNNFENLLPATDRLVKAKSDGSLATAGSVADGDSVAAAAASFSKLKSRSLEPLTGLAMWSSQPQIIELVKGDRGLGFSILDYQDPLDPNDTLIVIRSLVPGGVAQLDGRLIPGDRLLFVNSINLENASLDQAVQALKGASKGVVRIGVAKPLPMTDNSLKACSNASTTSEETLDAQPSPPALPTVAPPAMPPSASMGAEPDLIPDWRN

binding [3]: binds | binding [4]: binds
B2: Myc-tagged Patj (S2 cells) (protein, UniProt Q9NB04 1-871)
chain: MHLSADISSALQQIEAVKKGIDESDDPKLQMQTAESLSTILGILQDPVFRTIVHVQDSLSELNAQLAQHPSMLPNDFDIDVAGNLVLSLNGGEVMYDFDEQRSSSHSHSAPGSPDKSGGVGEEPRPQSQNSKGAGVADLYATDYAQIQAIELVNDGTGLGFGIIGARNSGVIVKTILPGGVADKDGRLRSGDHILQIGDVNLHEMVSEQVAAVLRQSGTHVRLVVARPVEQSVPTPQYALEPGTAVVPTRVLVDPAELERYLISTGYPEIFGESSTASTPQTTTEDDRFVYRGETSMLIDPNIDLEELLALPETEKLQVELKKDANGLGITIAGYVCEKEELSGIFVKSVSPGSAADLSGRIRVNDRIIEVDGQSLQGYSNHQAVELLKKSGQVVNLRLERYLRGPKFEQLQQAIAANDKLPSSAPGTPSRAPMPTPVATTSSATTTPSRSITRELEEEALPAPEAFMTTPPSVTTMTTTTLSSFGAGKQLVAVRDSLDGSTKIIPTEVVPLADKTEAKNSGVITRHKYYTDPELSDDAETEIIRKWQKIVGSDVEVIVAQIKKFAVGGLGISLEGTVDVEGGREVRPHHYIRSILPDGPVGVNGVLRSGDELLEVNGERLLGMNHLEVVAILKELPLDVRMVCGRNRNSSLLPFSDDTLKKLSNNFENLLPATDRLVKAKSDGSLATAGSVADGDSVAAAAASFSKLKSRSLEPLTGLAMWSSQPQIIELVKGDRGLGFSILDYQDPLDPNDTLIVIRSLVPGGVAQLDGRLIPGDRLLFVNSINLENASLDQAVQALKGASKGVVRIGVAKPLPMTDNSLKACSNASTTSEETLDAQPSPPALPTVAPPAMPPSASMGAEPDLIPDWRN

binding [5]: binds
B3: Myc-tagged Patj (HEK293T) (protein, UniProt Q9NB04 1-871)
chain: MHLSADISSALQQIEAVKKGIDESDDPKLQMQTAESLSTILGILQDPVFRTIVHVQDSLSELNAQLAQHPSMLPNDFDIDVAGNLVLSLNGGEVMYDFDEQRSSSHSHSAPGSPDKSGGVGEEPRPQSQNSKGAGVADLYATDYAQIQAIELVNDGTGLGFGIIGARNSGVIVKTILPGGVADKDGRLRSGDHILQIGDVNLHEMVSEQVAAVLRQSGTHVRLVVARPVEQSVPTPQYALEPGTAVVPTRVLVDPAELERYLISTGYPEIFGESSTASTPQTTTEDDRFVYRGETSMLIDPNIDLEELLALPETEKLQVELKKDANGLGITIAGYVCEKEELSGIFVKSVSPGSAADLSGRIRVNDRIIEVDGQSLQGYSNHQAVELLKKSGQVVNLRLERYLRGPKFEQLQQAIAANDKLPSSAPGTPSRAPMPTPVATTSSATTTPSRSITRELEEEALPAPEAFMTTPPSVTTMTTTTLSSFGAGKQLVAVRDSLDGSTKIIPTEVVPLADKTEAKNSGVITRHKYYTDPELSDDAETEIIRKWQKIVGSDVEVIVAQIKKFAVGGLGISLEGTVDVEGGREVRPHHYIRSILPDGPVGVNGVLRSGDELLEVNGERLLGMNHLEVVAILKELPLDVRMVCGRNRNSSLLPFSDDTLKKLSNNFENLLPATDRLVKAKSDGSLATAGSVADGDSVAAAAASFSKLKSRSLEPLTGLAMWSSQPQIIELVKGDRGLGFSILDYQDPLDPNDTLIVIRSLVPGGVAQLDGRLIPGDRLLFVNSINLENASLDQAVQALKGASKGVVRIGVAKPLPMTDNSLKACSNASTTSEETLDAQPSPPALPTVAPPAMPPSASMGAEPDLIPDWRN
